This is one part of the list. These are further read-outs of the screen, such as a control signal, another cell line or another target. No call is given for them. Compounds called inactive in the main read-out are mostly missing here. The note in brackets gives the kind of curve behind each potency; many fits are weak.

The AC50 is the midpoint of the concentration-response curve, whichever way the signal moves.

The test is described as follows: IkB Signaling. To be noted: ABC-DLBCL IkBa-CBG/CBR dual luciferase ratio (green luciferase fused to IkBa over red control in OCI-Ly3 lymphoma cells), 4 h. In a few lines: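 Luminescence ratio of IκBα-fused green versus native red beetle luciferase in OCI-Ly3 cells, 4 h post-doxycycline with compound; red signal alone, scaled from basal (0%) to zero light (-100%), flagged nonspecific or cytotoxic effects.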
Where [1] appears, read: measured here: control luc red channel unless noted.

As for `CC(=O)c1ccc(NC(=O)COc2ccccc2-c2nc(-c3ccc(C)cc3)no2)cc1`, the AC50 under setting [1] is 10 µM [falling, partial curve]. On the same count and under the same terms, next, `Cc1ccc(OCC(=O)Nc2ccccc2C(=O)OCc2cc(=O)n3ccsc3n2)cc1`: 1.58 µM [falling, partial curve]; `O=C(C1CCC(Cn2c(=O)c3sccc3n(Cc3ccccc3)c2=O)CC1)N1CCOCC1` (configuration not stated): 6.31 µM [rising, partial curve]. With `CCCCCn1c(-c2ccco2)nc2nc3ccccc3nc21`, the concentration at half-maximal activity (AC50) under setting [1] was 12.6 µM [falling, partial curve]. Consider `Cc1ccc(Cl)cc1N1CCN(C(=O)c2cnn(C)c2C2CCN(C(=O)OC(C)(C)C)CC2)CC1`, for which the AC50 under setting [1] is 15.8 µM [falling, partial curve]. Still for that read-out and setting: the result for `Cc1ccc(-c2nnc(Nc3ccccc3O)c3ccccc23)cc1` reads 0.631 µM [rising, partial curve]. As to `COc1cc(OC)c(NC(=O)N2CCc3c([nH]c4ccccc34)C2c2ccccc2F)cc1Cl` (configuration not stated), the AC50 under setting [1] was 20 µM [falling, partial curve, poor fit].

`Cc1cc(Cl)c2c(c1)[C@]1(C(=O)N2)[C@@H]2C(=O)N(Cc3ccccc3)C(=O)[C@@H]2[C@@H]2CCCN21`: under setting [1], the concentration at half-maximal activity (AC50) was 5.01 µM [falling, partial curve]. Same read-out and setting: next, `O=C(Nc1ccccc1F)c1ccc(Cn2nc(N3CCN(c4ccccc4)CC3)ccc2=O)o1`: 39.8 µM [falling, partial curve]; `O=C(CCC(=O)N1CC2CCCN2c2ccccc21)NCc1ccc(F)cc1` (configuration not stated): 7.94 µM [falling, partial curve]; `Cc1cc(C)c(NC(=O)CN2C(=O)c3cccnc3Sc3ccccc32)c(C)c1`: 12.6 µM [falling, partial curve, poor fit]. The same measure, in the same setting: next, `CCOc1ccccc1CNC(=O)c1ccc(CS(=O)Cc2cccc(Cl)c2)o1` (configuration not stated): 31.6 µM [falling, single point]; `COc1cccc(C2CC(=O)Nc3c2ccc(C)c3C)c1OC` (configuration not stated): 5.01 µM [falling, partial curve]; `CSc1ccc(C2C(C(=O)Nc3ccccc3)=C(C)Nc3nc4ccccc4n32)cc1` (configuration not stated): 7.94 µM [falling, full curve]. The same measure, in the same setting: next, `CSc1ccc(CNC(=O)Cn2nc(N3CCN(c4ccccc4)CC3)ccc2=O)cc1`: 31.6 µM [falling, single point]; `COc1cccc(NC(=O)CSc2nnc(-c3cccc(OC)c3)o2)c1`: 1.58 µM [falling, partial curve]; `Cc1ccc(NC(=O)CSc2ncc(-c3ccccc3)[nH]2)cc1`: 20 µM [falling, partial curve].

As to `O=C(CSc1nc2c([nH]c3ccccc32)c(=O)n1-c1ccc(F)cc1)N1CCc2ccccc21`, the AC50 under setting [1] is 1.58 µM [rising, full curve]. In the case of `COc1ccc(OC)c(NC(=O)c2cccc3c2C(=O)N(C2CCCCC2)C3)c1`, the half-maximal activity concentration (AC50) under setting [1] was 15.8 µM [falling, partial curve]. In the case of `O=C(Nc1ccc2c(c1)OCCO2)c1ccccc1F`, under setting [1], the concentration at half-maximal activity (AC50) is 15.8 µM [falling, partial curve].

Consider `O=S(=O)(c1ccc(F)cc1)N(CC(O)Cn1c2ccccc2c2ccccc21)c1ccccc1` (configuration not stated), for which the AC50 under setting [1] is 25.1 µM [falling, partial curve]. As to `CCOc1ccc(CCNC(=O)c2nnc(Cc3ccc(Cl)cc3Cl)o2)cc1OCC`, the half-maximal activity concentration (AC50) under setting [1] is 0.00631 µM [falling, full curve, poor fit]. On the same count and under the same terms, next, `CCOc1ccc2nc(N3CCN(C(=O)c4ccco4)CC3)sc2c1`: 25.1 µM [falling, partial curve, poor fit]. `COc1ccc(CNC(=O)C2CCCN(S(=O)(=O)c3ccc4c(ccn4C)c3)C2)c(OC)c1` (configuration not stated): the AC50 under setting [1] was 20 µM [falling, partial curve].

As to `Cc1ccc(-n2ncc(C(=O)NCCN3CCc4ccccc4C3)c2C2CCN(C(=O)OC(C)(C)C)CC2)cc1C`, under setting [1], the AC50 was 25.1 µM [falling, partial curve]. The same measure, in the same setting: next, `COc1ccc(-c2nc(SCC(=O)NC(C)CCc3ccccc3)n[nH]2)cc1` (configuration not stated): 31.6 µM [falling, partial curve]; `CCOC(=O)c1c(C)oc2nc(C)nc(NCCc3ccc(OCC)c(OCC)c3)c12`: 31.6 µM [falling, partial curve, poor fit]; `COc1ccc(N2CCN(c3ncnc4c3cnn4-c3ccc(F)cc3)CC2)cc1`: 3.16 µM [falling, partial curve]. For the compound `COC(=O)c1ccc(NC(=O)CSc2cn(CC(=O)N3CCCCC3)c3ccccc23)cc1`, under setting [1], the concentration at half-maximal activity (AC50) was 31.6 µM [falling, single point]. For `COc1ccc(CNS(=O)(=O)c2cc3c(cc2Cl)N(C(C)=O)CCO3)cc1`, under setting [1], the AC50 is 25.1 µM [falling, single point]. Turning to `CC1CCN(C(c2ccccc2)c2sc3nc(-c4ccco4)nn3c2O)CC1` (configuration not stated), the AC50 under setting [1] was 6.31 µM [rising, single point]. In the case of `Cc1ccc(Nc2cc(C(=O)NCCc3ccccc3)c3ccccc3n2)c(C)c1`, the AC50 under setting [1] was 1.26 µM [falling, single point]. Take `COc1ccc(NC(=O)CSc2nc(-c3cc(OC)c(OC)c(OC)c3)[nH]c2-c2ccc(F)cc2)cc1`: the AC50 under setting [1] is 10 µM [falling, partial curve]. Still for that read-out and setting: the result for `Cc1ccccc1Cn1c(COc2ccc(Cl)cc2)nc2ccccc21` reads 31.6 µM [falling, single point]. Same read-out and setting: the result for `COc1ccc(CNC(=O)C2CCN(c3nnc(-n4c(C)ccc4C)s3)CC2)c(OC)c1` reads 10 µM [falling, partial curve]; that for `O=C(Nc1cccc(F)c1)C1CCCN(S(=O)(=O)c2cccc3cccnc23)C1` (configuration not stated), 10 µM [falling, partial curve]. The same measure, in the same setting: the result for `CCCCN(C)CCCNC(=O)C1CCN(S(=O)(=O)CCC)CC1` reads 15.8 µM [falling, partial curve, poor fit].

With `COCCNc1nc2c(c(=O)n(C)c(=O)n2C)n1Cc1c(F)cccc1Cl`, the AC50 under setting [1] was 25.1 µM [falling, single point]. Still for that read-out and setting: next, `Cc1oc(-c2cccc(Cl)c2)nc1CN1CCC(C(=O)NC(C)c2ccccc2)CC1` (configuration not stated): 12.6 µM [falling, partial curve]; `COc1ccc(Cl)cc1NC(=O)CSc1cn(CC(=O)N2CCCCC2)c2ccccc12`: 7.94 µM [falling, partial curve]. For the compound `CCOCCc1nn2c(=O)cc(COC(=O)c3ccc(NC(=O)C4CCCCC4)cc3)nc2s1`, the half-maximal activity concentration (AC50) under setting [1] was 31.6 µM [falling, single point]. For `COc1ccccc1CNc1nc2ccc(C)cc2n2nnnc12`, the AC50 under setting [1] was 10 µM [falling, partial curve]. Still for that read-out and setting: the result for `Cc1nn(-c2ccccc2)c(OC(=O)c2ccccc2Br)c1S(=O)(=O)c1ccccc1` reads 25.1 µM [falling, single point].

For `O=C(CS(=O)(=O)c1cccc2nsnc12)N1CCN(c2ccccc2F)CC1`, the AC50 under setting [1] was 39.8 µM [rising, partial curve]. In the case of `O=C1CC(c2c(Cl)cccc2Cl)c2c(ccc3ccccc23)N1` (configuration not stated), the concentration at half-maximal activity (AC50) under setting [1] was 39.8 µM [falling, single point]. `CCOc1ccc(NC(=O)N2CC3CCCN3c3ccccc32)cc1` (configuration not stated): the AC50 under setting [1] is 39.8 µM [falling, single point].

In the case of `CC(=O)NNc1ncnc2c1cnn2-c1ccccc1`, the AC50 under setting [1] is 1.58 µM [falling, full curve]. Still for that read-out and setting: next, `COC(=O)c1ccc(CCc2cc(O)ccc2O)cc1`: 3.98 µM [rising, partial curve] [measured here: IkB-luc green channel]. The same measure, in the same setting: next, `Cc1nn(-c2ccccc2)c(C)c1C(=O)Nc1nnc(-c2ccco2)o1`: 39.8 µM [rising, single point] [measured here: IkB-luc green channel]; `COC(=O)c1cnc(N2CCN(c3ccc(OC)cc3)CC2)c2ccccc12`: 39.8 µM [falling, single point]; `Cc1ccccc1NS(=O)(=O)c1ccc2[nH]cc(C(=O)NCCc3ccccc3)c(=O)c2c1`: 20 µM [falling, single point]. On the same count and under the same terms, next, `Cc1cccc(-c2nc(CN3CCCC(C(=O)NC4CCCC4)C3)c(C)o2)c1` (configuration not stated): 25.1 µM [falling, partial curve]; `Cc1cccc2sc(NC(=O)CCNS(=O)(=O)c3cccc4nonc34)nc12`: 10 µM [falling, partial curve]. `Cc1ccc(-c2onc(C)c2C)cc1S(=O)(=O)N1CCN(c2ccccc2F)CC1`: the AC50 is, setting by setting: (measured here: IkB-luc green channel) 3.98 µM [rising, partial curve]; (measured here: control luc red channel) 39.8 µM [falling, single point]. With `COc1cc(OC)c(NC(=O)Nc2ccc3c(c2)N(C)C(=O)c2ccccc2S3)cc1Cl`, the AC50 under setting [1] is 7.94 µM [falling, partial curve]. With `COc1cc(OC)cc(-n2c(=O)c3sccc3n(Cc3ccc(F)cc3)c2=O)c1`, the AC50 under setting [1] is 39.8 µM [rising, partial curve].

Regarding `CCn1c2ccccc2c2cc(CN3CCN(Cc4cccc(Cl)c4)CC3)ccc21`, under setting [1], the AC50 was 25.1 µM [falling, single point]. As for `COC(=O)c1ccccc1NC(=O)CCCn1nc(C)c2c(C)n(-c3ccccc3)nc2c1=O`, the AC50 under setting [1] was 10 µM [falling, single point]. Same read-out and setting: the result for `Cc1ccc(CNC(=O)c2cc(-c3ccc(C)c(C)c3)nc3ccccc23)cc1` reads 6.31 µM [falling, partial curve]; that for `Cc1ccc(Cl)cc1N1CCN(c2nc3ccccc3c3nc(-c4cccnc4)nn23)CC1`, 0.00631 µM [rising, full curve, poor fit]. Same read-out and setting: the result for `CCCOc1ccc(Oc2nc(NC)nc(N3CCOCC3)n2)nn1` reads 39.8 µM [falling, partial curve, poor fit].

Source of the values: PubChem BioAssay AID445 (National Center for Advancing Translational Sciences (NCATS), 2006).
